Results are given in words; binding and its absence hold for the method and conditions named. Binding seen in cells or lysates may run through a third protein. Some entries that bind do so weakly or less than the wild type. For some of these results: Tags and fused reporters may be left off the sequences shown.
Tests used:
Assay in all cases: co-IP; LCL extracts (10^7 cells lysed in IP buffer, precleared); the cellular protein (RBPJ, BMI1, SUZ12 or KDM2B) immunoprecipitated from 200 ug lysate overnight at 4°C, protein G-Sepharose, four washes; Western blot for EBNA3C; isotype IgG control; mutants quantified by ImageJ as percent relative IP compared to EBNA3C WT
[1] = target: RBPJ (human (endogenous in LCLs)) (UniProt Q06330)
[2] = target: SUZ12 (human (endogenous in LCLs)) (UniProt Q15022)
[3] = target: T1, histone lysine demethylase KDM2B (human (endogenous in LCLs)) (UniProt Q8NHM5)
T1 sequence: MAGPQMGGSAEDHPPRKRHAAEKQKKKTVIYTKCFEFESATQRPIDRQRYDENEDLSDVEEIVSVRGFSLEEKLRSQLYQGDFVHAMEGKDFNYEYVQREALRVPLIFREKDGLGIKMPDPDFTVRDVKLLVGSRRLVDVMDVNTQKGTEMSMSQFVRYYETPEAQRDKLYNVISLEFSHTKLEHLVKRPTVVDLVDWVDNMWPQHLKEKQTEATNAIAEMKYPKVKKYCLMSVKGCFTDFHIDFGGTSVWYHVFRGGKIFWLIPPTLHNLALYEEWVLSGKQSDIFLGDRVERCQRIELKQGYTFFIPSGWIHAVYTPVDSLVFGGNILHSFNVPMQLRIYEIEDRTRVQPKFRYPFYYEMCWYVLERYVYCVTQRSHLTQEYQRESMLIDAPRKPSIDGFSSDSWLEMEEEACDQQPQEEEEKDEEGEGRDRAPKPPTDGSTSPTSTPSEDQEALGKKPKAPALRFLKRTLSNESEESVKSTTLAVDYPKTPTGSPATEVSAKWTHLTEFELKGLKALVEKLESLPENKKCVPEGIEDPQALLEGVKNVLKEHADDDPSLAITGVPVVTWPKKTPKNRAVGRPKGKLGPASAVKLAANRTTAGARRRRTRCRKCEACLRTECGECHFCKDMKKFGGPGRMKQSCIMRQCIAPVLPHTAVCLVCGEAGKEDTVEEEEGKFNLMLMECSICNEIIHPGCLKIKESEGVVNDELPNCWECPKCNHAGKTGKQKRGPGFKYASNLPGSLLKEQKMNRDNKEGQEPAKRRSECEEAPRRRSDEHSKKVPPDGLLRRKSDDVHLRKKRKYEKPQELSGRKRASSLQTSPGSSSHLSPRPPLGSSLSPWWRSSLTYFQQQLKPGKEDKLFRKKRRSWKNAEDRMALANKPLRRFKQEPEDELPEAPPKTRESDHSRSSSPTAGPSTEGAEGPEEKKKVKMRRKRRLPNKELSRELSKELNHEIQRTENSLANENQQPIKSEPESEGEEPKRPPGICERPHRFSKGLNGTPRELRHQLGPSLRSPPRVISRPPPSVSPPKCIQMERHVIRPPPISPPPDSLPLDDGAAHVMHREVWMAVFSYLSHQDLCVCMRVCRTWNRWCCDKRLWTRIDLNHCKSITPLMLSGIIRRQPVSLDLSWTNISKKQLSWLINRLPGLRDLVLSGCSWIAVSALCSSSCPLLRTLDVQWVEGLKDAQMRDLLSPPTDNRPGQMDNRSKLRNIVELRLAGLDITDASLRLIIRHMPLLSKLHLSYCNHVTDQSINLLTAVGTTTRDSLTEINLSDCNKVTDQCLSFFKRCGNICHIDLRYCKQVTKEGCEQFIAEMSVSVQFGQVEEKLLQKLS

Sequences of proteins named here, by UniProt entry; tags and fusion partners are left off.
UniProt Q06330: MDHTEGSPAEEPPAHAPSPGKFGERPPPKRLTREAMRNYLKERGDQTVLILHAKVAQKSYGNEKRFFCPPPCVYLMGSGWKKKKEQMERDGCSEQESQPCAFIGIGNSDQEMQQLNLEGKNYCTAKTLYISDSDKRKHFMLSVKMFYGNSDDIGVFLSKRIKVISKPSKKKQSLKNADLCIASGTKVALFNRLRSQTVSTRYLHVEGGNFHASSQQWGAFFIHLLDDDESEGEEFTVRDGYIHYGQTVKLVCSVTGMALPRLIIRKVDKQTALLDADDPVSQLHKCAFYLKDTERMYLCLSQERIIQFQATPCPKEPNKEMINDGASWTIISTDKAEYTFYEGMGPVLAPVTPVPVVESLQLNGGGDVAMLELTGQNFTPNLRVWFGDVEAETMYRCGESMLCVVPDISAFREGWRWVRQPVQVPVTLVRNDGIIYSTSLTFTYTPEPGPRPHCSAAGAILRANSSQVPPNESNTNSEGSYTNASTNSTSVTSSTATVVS
UniProt Q15022: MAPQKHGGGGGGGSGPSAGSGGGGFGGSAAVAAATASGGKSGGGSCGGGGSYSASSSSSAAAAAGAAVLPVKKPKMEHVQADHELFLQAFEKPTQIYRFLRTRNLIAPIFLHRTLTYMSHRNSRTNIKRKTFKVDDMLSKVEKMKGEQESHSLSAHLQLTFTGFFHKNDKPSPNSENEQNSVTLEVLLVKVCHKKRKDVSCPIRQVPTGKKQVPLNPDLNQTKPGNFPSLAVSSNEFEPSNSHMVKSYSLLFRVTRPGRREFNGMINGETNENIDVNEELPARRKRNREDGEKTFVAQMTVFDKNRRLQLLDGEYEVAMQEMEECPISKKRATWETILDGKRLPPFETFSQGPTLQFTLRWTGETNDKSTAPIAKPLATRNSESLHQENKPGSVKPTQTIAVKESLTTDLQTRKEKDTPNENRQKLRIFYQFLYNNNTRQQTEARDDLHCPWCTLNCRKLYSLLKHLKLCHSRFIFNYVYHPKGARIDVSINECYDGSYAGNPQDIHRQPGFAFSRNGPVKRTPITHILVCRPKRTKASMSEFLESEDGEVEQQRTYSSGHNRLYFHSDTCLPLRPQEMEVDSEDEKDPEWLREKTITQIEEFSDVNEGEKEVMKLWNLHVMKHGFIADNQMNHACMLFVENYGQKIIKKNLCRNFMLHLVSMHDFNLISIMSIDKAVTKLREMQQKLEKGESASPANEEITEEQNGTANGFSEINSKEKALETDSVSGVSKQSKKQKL
UniProt P35226: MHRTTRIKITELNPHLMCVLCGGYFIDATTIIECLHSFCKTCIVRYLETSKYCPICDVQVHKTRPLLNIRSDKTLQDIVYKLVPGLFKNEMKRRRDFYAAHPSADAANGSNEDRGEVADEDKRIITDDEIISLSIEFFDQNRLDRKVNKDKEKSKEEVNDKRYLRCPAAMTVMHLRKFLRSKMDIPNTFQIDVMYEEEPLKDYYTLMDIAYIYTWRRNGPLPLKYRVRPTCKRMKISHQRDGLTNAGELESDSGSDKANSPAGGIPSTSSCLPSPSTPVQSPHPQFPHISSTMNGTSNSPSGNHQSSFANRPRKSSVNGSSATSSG
UniProt P03204: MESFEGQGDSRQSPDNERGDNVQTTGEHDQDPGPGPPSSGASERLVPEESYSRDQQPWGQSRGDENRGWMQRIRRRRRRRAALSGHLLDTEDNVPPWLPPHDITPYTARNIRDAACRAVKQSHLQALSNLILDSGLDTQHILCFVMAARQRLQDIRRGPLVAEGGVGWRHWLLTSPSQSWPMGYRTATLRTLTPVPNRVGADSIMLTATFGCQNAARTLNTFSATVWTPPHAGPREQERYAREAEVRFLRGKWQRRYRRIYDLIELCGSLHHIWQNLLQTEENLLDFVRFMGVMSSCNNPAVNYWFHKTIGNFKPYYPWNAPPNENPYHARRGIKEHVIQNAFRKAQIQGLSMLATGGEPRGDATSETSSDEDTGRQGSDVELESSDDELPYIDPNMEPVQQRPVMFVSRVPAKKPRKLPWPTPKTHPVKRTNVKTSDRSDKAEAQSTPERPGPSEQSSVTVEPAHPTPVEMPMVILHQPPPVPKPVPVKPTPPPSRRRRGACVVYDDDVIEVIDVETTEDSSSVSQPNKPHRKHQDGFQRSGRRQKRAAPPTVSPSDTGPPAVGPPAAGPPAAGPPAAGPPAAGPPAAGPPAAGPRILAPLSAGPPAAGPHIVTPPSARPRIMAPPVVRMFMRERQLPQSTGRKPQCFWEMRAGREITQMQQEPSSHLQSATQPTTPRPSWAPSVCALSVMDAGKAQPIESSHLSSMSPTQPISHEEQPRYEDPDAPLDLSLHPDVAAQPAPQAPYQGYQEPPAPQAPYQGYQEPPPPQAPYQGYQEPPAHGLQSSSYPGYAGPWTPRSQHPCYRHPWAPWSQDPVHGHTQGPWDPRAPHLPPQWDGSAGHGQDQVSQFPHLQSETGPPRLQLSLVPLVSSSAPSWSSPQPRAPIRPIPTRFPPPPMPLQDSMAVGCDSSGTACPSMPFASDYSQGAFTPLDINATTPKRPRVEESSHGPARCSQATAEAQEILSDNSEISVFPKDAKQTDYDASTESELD

[4] = target: BMI1 (human (endogenous in LCLs)) (UniProt P35226)

In the case of “Epstein-Barr virus nuclear antigen 3C (EBNA3C) wild type (from UniProt P03204 1-992)”, the binding [1] is reported as “binds”, the binding [2] is reported as “no binding” and the binding [3] is reported as “binds”. For the same substance, the binding [4] was “binds”.
